Reference: patent publication US20220242937A1
Changes are numbered by the printed parent chain. These are yes or no findings as the source states them, for the method shown. Some binding calls cover weakened binding; strength is not graded here.

B1: 066-4.26.14H2L2 (antibody, V domains shown)
VH: EVQLVESGGGLVKPGGSLRLSCAASGFTFRSYAMSWVRQTPEKRLEWVASISTTSNTYYPDSVKGRFTTSRDNAKNSVYLQMSSLRAEDTAVYYCGRGVITNQAWFAYWGQGTTVTVSS
VL: DIVLTQSPATLSVSPGERATLSCRASQSISNNLHWYQQKPGQAPRLLIKYASQSISGIPARFSGSGSGTDFTLTISSLQSEDFAVYFCQQSNSWPLTFGGGTKVEIK
B2: 066-4.26.14H2L3 (antibody, V domains shown)
VH: B1 VH
VL: DIVLTQSPDFQSVTPKEKVTISCRASQSISNNLHWYQQKPDQSPKLLIKYASQSISGIPSRFSGSGSGTDFTLTINSLEAEDAAAYFCQQSNSWPLTFGPGTKVEIK
B3: 066-4.26.14H4L2 (antibody, V domains shown)
VH: B1 VH with K13Q, T40A, E42G, R44G, A87D, V92M, T113I, T114L
VL: B1 VL
B4: 066-4.26.14H5L1 (antibody, V domains shown)
VH: B1 VH with K13Q, A23V, T40A, E42G, R44G, A74S, S77T, T114L
VL: B1 VL with A19V, P40S, A60S, K103Q
B5: 066-4.26.14H5L2 (antibody, V domains shown)
VH: B1 VH with K13Q, A23V, T40A, E42G, R44G, A74S, S77T, T114L
VL: B1 VL
B6: 066-4.26.14H5L3 (antibody, V domains shown)
VH: B1 VH with K13Q, A23V, T40A, E42G, R44G, A74S, S77T, T114L
VL: B2 VL

target: Aβ1-42 monomer (human); test: ELISA on human Aβ42 monomer

binding, binds:
B1
B2
B3
B4
B5
B6
